Results: patent US9168245B2, “Selective protein kinase inhibitors” (AB SCIENCE, priority 2011, dated 2015)
Counter-ions that a name gives are not always drawn. Some results were stated once for a whole list of compounds, not compound by compound.

The chains behind the UniProt entries cited, without tags or fusion partners. Residues count along the entry.
UniProt P10721, 26-976 D816V: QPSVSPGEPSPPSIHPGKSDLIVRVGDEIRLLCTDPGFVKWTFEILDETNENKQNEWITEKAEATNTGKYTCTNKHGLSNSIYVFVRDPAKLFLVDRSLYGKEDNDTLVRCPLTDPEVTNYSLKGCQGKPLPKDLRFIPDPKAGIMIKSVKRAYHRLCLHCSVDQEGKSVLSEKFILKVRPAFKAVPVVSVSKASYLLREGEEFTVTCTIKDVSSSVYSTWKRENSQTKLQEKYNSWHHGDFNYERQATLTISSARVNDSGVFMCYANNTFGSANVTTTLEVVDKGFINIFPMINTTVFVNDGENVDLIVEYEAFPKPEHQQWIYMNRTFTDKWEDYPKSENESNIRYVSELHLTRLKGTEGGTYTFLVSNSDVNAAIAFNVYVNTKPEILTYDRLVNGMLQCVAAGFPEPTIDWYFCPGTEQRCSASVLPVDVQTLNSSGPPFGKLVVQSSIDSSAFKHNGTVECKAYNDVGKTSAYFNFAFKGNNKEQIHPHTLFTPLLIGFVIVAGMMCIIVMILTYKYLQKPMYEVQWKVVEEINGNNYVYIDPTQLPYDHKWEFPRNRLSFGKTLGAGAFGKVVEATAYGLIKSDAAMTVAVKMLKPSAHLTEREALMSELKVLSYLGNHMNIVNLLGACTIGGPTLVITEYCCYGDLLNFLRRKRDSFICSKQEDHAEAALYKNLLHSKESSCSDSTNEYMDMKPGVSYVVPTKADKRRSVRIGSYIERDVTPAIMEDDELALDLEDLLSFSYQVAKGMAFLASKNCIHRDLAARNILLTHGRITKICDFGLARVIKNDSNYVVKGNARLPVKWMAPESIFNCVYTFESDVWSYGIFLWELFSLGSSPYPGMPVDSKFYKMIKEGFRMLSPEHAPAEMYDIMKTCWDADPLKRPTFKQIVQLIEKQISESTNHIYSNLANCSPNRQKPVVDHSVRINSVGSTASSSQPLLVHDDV

What follows are compounds tested against T1, c-kit D816V (Homo sapiens, UniProt P10721, D816V) (assay: Colorimetric cell proliferation and viability assay (CellTiter-Blue) on BaF3 Kit D816V cell line). Conditions: Ba/F3 cells expressing human Kit D816V, cytokine independent, 48 hours incubation.
T1 construct: expressed in transfected cells; host or cells: murine Ba/F3 proB lymphoid cells, cytokine-independent
Assay type: cell-based
“1-{4-[2-((5- Hydroxymethyl)-2- methyl- phenylamino)- oxazol-5-yl]-pyridin- 2-yl}-imidazolidin-2- one [Example 034]” was tested, and the IC50 was no more than 1000 nM.
With CCOCc1ccc(C)c(Nc2ncc(-c3cc(OC4CCN(C)CC4)cc(N4CCNC4=O)c3)o2)c1 [Example 002, 1-[3-[2-((5-Ethoxymethyl)-2-methyl-phenylamino)-oxazol-5-yl]-5-(1-methyl-piperidin-4-yloxy)-phenyl]-imidazolidin-2-one] the IC50 was no more than 1000 nM.
Work on CCOCc1ccc(C)c(Nc2ncc(-c3cc(OC(C)C)cc(N4CCNC4=O)c3)s2)c1 [Example 007, 1-{3-[2-((5-Ethoxymethyl)-2-methyl-phenylamino)-thiazol-5-yl]-5-isopropoxy-phenyl}-imidazolidin-2-one] yielded an IC50 of no more than 1000 nM.
In the case of Cc1cc(-c2cnc(Nc3cc(OCCO)ccc3C)o2)cc(-n2cc[nH]c2=O)c1 [Example 008, 1-(3-{2-[5-(2-Hydroxy-ethoxy)-2-methyl-phenylamino]-oxazol-5-yl}-5-methyl-phenyl)-1,3-dihydro-imidazol-2-one], the IC50 is reported as no more than 1000 nM.
For COc1ccc(C)c(Nc2ncc(-c3cc(N4CCN(C)CC4)cc(-n4nc[nH]c4=O)c3)o2)c1 [Example 009, 2-[3-[2-(5-Methoxy-2-methyl-phenylamino)-oxazol-5-yl]-5-(4-methyl-piperazin-1-yl)-phenyl]-2,4-dihydro-[1,2,4]triazol-3-one], the IC50 was no more than 1000 nM.
In the case of CCOCc1ccc(C)c(Nc2ncc(-c3cncc(-n4nc[nH]c4=O)c3)o2)c1 [Example 010, 2-{5-[2-((5-Ethoxymethyl)-2-methyl-phenylamino)-oxazol-5-yl]-pyridin-3-yl}-2,4-dihydro-[1,2,4]triazol-3-one], the IC50 is reported as no more than 1000 nM.
Compound COc1ccc(C)c(Nc2ncc(-c3ccnc(N4CC(C)NC4=O)c3)o2)c1 (stereo not drawn) [Example 022, 1-{4-[2-(5-Methoxy-2-methyl-phenylamino)-oxazol-5-yl]-pyridin-2-yl}-4-methyl-imidazolidin-2-one] has an IC50 of no more than 1000 nM.
COCc1ccc(C)c(Nc2ncc(-c3cncc(-n4cc[nH]c4=O)c3)o2)c1 [Example 027, 1-{5-[2-((5-Methoxymethyl)-2-methyl-phenylamino)-oxazol-5-yl]-pyridin-3-yl)-2,4-dihydro-imidazol-2-onehydrochloride] gave an IC50 of no more than 1000 nM.
CCOCc1ccc(C)c(Nc2ncc(-c3ccnc(-n4nc[nH]c4=O)c3)o2)c1 [Example 028, 2-{4-[2-(5-Ethoxymethyl-2-methyl-phenylamino)-oxazol-5-yl]-pyridin-2-yl}-2,4-dihydro-[1,2,4]triazol-3-one] gave an IC50 of no more than 1000 nM.
COCCOc1ccc(C)c(Nc2ncc(-c3ccnc(-n4nc[nH]c4=O)c3)o2)c1 [Example 030, 2-(4-{2-[5-(2-Methoxy-ethoxy)-2-methyl-phenylamino]-oxazol-5-yl}-pyridin-2-yl)-2,4-dihydro-[1,2,4]triazol-3-onehydrochloride] gave an IC50 of no more than 1000 nM.
With COc1ccc(C)c(Nc2ncc(-c3ccnc(N4CCNC4=O)c3)o2)c1 [Example 033, 1-{4-[2-(5-Methoxy-2-methyl-phenylamino)-oxazol-5-yl]-pyridin-2-yl}-imidazolidin-2-one] the IC50 was no more than 1000 nM.
In the case of CCOCc1ccc(C)c(Nc2ncc(-c3ccnc(N4CCCC4=O)c3)o2)c1 [Example 035, 1-{4-[2-((5-Ethoxymethyl)-2-methyl-phenylamino)-oxazol-5-yl]-pyridin-2-yl}-pyrrolidin-2-one], the IC50 is reported as no more than 1000 nM.
Work on CCOCc1ccc(C)c(Nc2ncc(-c3cc(C)cc(N4CCCC4=O)c3)o2)c1 [Example 036, 1-{3-[2-((5-Ethoxymethyl)-2-methyl-phenylamino)-oxazol-5-yl]-5-methyl-phenyl}-pyrrolidin-2-one] yielded an IC50 of no more than 1000 nM.
With CCOCc1ccc(C)c(Nc2ncc(-c3ccnc(-n4cc(C)[nH]c4=O)c3)o2)c1 [Example 040, 1-{4-[2-((5-Ethoxymethyl)-2-methyl-phenylamino)-oxazol-5-yl]-pyridin-2-yl}-4-methyl-1,3-dihydro-imidazol-2-one] the IC50 was no more than 1000 nM.
Cc1ccc(OCCN2CCOCC2)cc1Nc1ncc(-c2ccnc(-n3cc[nH]c3=O)c2)o1 [Example 042, 1-(4-{2-[2-Methyl-5-(2-morpholin-4-yl-ethoxy)-phenylamino]-oxazol-5-yl}-pyridin-2-yl)-1,3-dihydro-imidazol-2-one] gave an IC50 of no more than 1000 nM.
Cc1ccc(OCCO)cc1Nc1ncc(-c2ccnc(-n3cc[nH]c3=O)c2)o1 [Example 043, 1-(4-{2-[5-(2-Hydroxy-ethoxy)-2-methyl-phenylamino]-oxazol-5-yl}-pyridin-2-yl)-1,3-dihydro-imidazol-2-one] was tested, and the IC50 was no more than 1000 nM.
Compound Cc1ccc(COC2CCN(C)CC2)cc1Nc1ncc(-c2ccnc(-n3cc[nH]c3=O)c2)o1 [Example 044, 1-(4-{2-[2-Methyl-5-(1-methyl-piperidin-4-yloxymethyl)-phenylamino]-oxazol-5-yl}-pyridin-2-yl)-1,3-dihydro-imidazol-2-one] has an IC50 of no more than 1000 nM.
Cc1ccc(OCCO)cc1Nc1ncc(-c2ccnc(N3CCNC3=O)c2)o1 [Example 048, 1-(4-{2-[5-(2-Hydroxy-ethoxy)-2-methyl-phenylamino]-oxazol-5-yl}-pyridin-2-yl)-imidazolidin-2-one] gave an IC50 of no more than 1000 nM.
Cc1ccc(OCCN2CCOCC2)cc1Nc1ncc(-c2ccnc(N3CCNC3=O)c2)o1 [Example 049, 1-(4-{2-[2-Methyl-5-(2-morpholin-4-yl-ethoxy)-phenylamino]-oxazol-5-yl}-pyridin-2-yl)-imidazolidin-2-one] gave an IC50 of no more than 1000 nM.
Work on COCc1ccc(C)c(Nc2ncc(-c3ccnc(N4CC(C)NC4=O)c3)o2)c1 (stereo not drawn) [Example 051, 1-{4-[2-((5-Methoxymethyl)-2-methyl-phenylamino)-oxazol-5-yl]-pyridin-2-yl}-4-methyl-imidazolidin-2-one] yielded an IC50 of no more than 1000 nM.
In the case of Cc1ccc(OCCN2CCOCC2)cc1Nc1ncc(-c2ccnc(N3CC(C)NC3=O)c2)o1 (stereo not drawn) [Example 053, 4-Methyl-1-(4-{2-[2-methyl-5-(2-morpholin-4-yl-ethoxy)-phenylamino]-oxazol-5-yl}-pyridin-2-yl)-imidazolidin-2-one], the IC50 is reported as no more than 1000 nM.
In the case of Cc1ccc(OCCCN2CCOCC2)cc1Nc1ncc(-c2ccnc(N3CCNC3=O)c2)o1 [Example 057, 1-(4-{2-[2-Methyl-5-(3-morpholin-4-yl-propoxy)-phenylamino]-oxazol-5-yl}-pyridin-2-yl)-imidazolidin-2-one], the IC50 is reported as no more than 1000 nM.
COCc1ccc(C)c(Nc2ncc(-c3cc(OC(C)(C)C)cc(N4CCNC4=O)c3)o2)c1 [Example 062, 1-{3-tert-Butoxy-5-[2-((5-methoxymethyl)-2-methyl-phenylamino)-oxazol-5-yl]-phenyl}-imidazolidin-2-one] was tested, and the IC50 was no more than 1000 nM.
For CCOCc1ccc(C)c(Nc2ncc(-c3ccnc(N4CC(C)NC4=O)c3)o2)c1 (stereo not drawn) [Example 073, 1-{4-[2-((5-Ethoxymethyl)-2-methyl-phenylamino)-oxazol-5-yl]-pyridin-2-yl}-4-methyl-imidazolidin-2-one], the IC50 was no more than 1000 nM.
CCOCc1ccc(C)c(Nc2ncc(-c3ccnc(N4CC(C)(C)NC4=O)c3)o2)c1 [Example 074, 1-{4-[2-((5-Ethoxymethyl)-2-methyl-phenylamino)-oxazol-5-yl]-pyridin-2-yl}-4,4-dimethyl-imidazolidin-2-one] showed an IC50 of no more than 1000 nM.
Work on COCCOc1ccc(C)c(Nc2ncc(-c3ccnc(N4CC(C)NC4=O)c3)o2)c1 (stereo not drawn) [Example 078, 1-(4-{2-[5-(2-Methoxy-ethoxy)-2-methyl-phenylamino]-oxazol-5-yl}-pyridin-2-yl)-4-methyl-imidazolidin-2-one] yielded an IC50 of no more than 1000 nM.
Work on CCOC(C)c1ccc(C)c(Nc2ncc(-c3cc(OC(C)C)cc(N4CCNC4=O)c3)o2)c1 (stereo not drawn) [Example 082, 1-(3-{2-[5-(1-Ethoxy-ethyl)-2-methyl-phenylamino]-oxazol-5-yl}-5-isopropoxy-phenyl)-imidazolidin-2-one] yielded an IC50 of no more than 1000 nM.
For COc1ccc(C)c(Nc2ncc(-c3cc(OC(F)(F)F)cc(N4CCNC4=O)c3)o2)c1 [Example 083, 1-(3-(2-(5-methoxy-2-methylphenylamino)oxazol-5-yl)-5-(trifluoromethoxy)phenyl)imidazolidin-2-one], the IC50 was no more than 1000 nM.
With Cc1ccc(COCC(F)(F)F)cc1Nc1ncc(-c2cc(OC(C)C)cc(N3CCNC3=O)c2)o1 [Example 085, 1-(3-Isopropoxy-5-{2-[2-methyl-5-(2,2,2-trifluoro-ethoxymethyl)-phenylamino]-oxazol-5-yl)-phenyl)-imidazolidin-2-one] the IC50 was no more than 1000 nM.
Work on Cc1ccc(C(=O)NCCN2CCOCC2)cc1Nc1ncc(-c2cc(OC(C)C)cc(N3CCNC3=O)c2)o1 [Example 088, 3-{5-[3-Isopropoxy-5-(2-oxo-imidazolidin-1-yl)-phenyl]-oxazol-2-ylamino}-4-methyl-N-(2-morpholin-4-yl-ethyl)-benzamide] yielded an IC50 of no more than 1000 nM.
COCCNC(=O)c1ccc(C)c(Nc2ncc(-c3cc(OC(C)C)cc(N4CCNC4=O)c3)o2)c1 [Example 089, 3-{5-[3-Isopropoxy-5-(2-oxo-imidazolidin-1-yl)-phenyl]-oxazol-2-ylamino}-N-(2-methoxy-ethyl)-4-methyl-benzamide] showed an IC50 of no more than 1000 nM.
Cc1ccc(C(=O)NC(C)C)cc1Nc1ncc(-c2cc(OC(C)C)cc(N3CCNC3=O)c2)o1 [Example 090, 3-{5-[3-Isopropoxy-5-(2-oxo-imidazolidin-1-yl)-phenyl]-oxazol-2-ylamino}-N-isopropyl-4-methyl-benzamide] gave an IC50 of no more than 1000 nM.
Compound Cc1ccc(C(=O)N(C)C)cc1Nc1ncc(-c2cc(OC(C)C)cc(N3CCNC3=O)c2)o1 [Example 091, 3-{5-[3-Isopropoxy-5-(2-oxo-imidazolidin-1-yl)-phenyl]-oxazol-2-ylamino}-4,N,N-trimethyl-benzamide] has an IC50 of no more than 1000 nM.
Compound CCCOc1ccc(C)c(Nc2ncc(-c3cc(OC(C)C)cc(N4CCNC4=O)c3)o2)c1 [Example 095, 1-{3-Isopropoxy-5-[2-(2-methyl-5-propoxy-phenylamino)-oxazol-5-yl]-phenyl)-imidazolidin-2-one] has an IC50 of no more than 1000 nM.
CCCCc1ccc(C)c(Nc2ncc(-c3cc(OC(C)C)cc(N4CCNC4=O)c3)o2)c1 [Example 098] showed an IC50 of no more than 1000 nM.
CCOCc1ccc(C)c(Nc2ncc(-c3cc(CN4CCOCC4)cc(N4CCNC4=O)c3)o2)c1 [Example 099, 1-{3-[2-(5-Ethoxymethyl-2-methyl-phenylamino)-oxazol-5-yl]-5-morpholin-4-ylmethyl-phenyl}-imidazolidin-2-one] was tested, and the IC50 was no more than 1000 nM.
